According to the supplement of paper PMC10849652:
This is one part of the list.

Amino acid sequences for entries named in this document (tags omitted). A change or cut given only in a name is not applied to a line headed by its entry.
UniProt Q9BPY3: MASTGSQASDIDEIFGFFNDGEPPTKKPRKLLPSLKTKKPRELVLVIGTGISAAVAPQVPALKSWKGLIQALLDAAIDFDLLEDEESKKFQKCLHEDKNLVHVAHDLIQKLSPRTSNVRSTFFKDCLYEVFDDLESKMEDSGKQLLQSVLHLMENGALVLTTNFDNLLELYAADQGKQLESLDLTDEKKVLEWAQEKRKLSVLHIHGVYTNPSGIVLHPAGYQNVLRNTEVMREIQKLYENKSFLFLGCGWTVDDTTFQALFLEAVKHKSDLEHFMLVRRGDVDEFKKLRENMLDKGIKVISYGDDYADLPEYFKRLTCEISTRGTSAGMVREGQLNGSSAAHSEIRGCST
UniProt Q5BKY9: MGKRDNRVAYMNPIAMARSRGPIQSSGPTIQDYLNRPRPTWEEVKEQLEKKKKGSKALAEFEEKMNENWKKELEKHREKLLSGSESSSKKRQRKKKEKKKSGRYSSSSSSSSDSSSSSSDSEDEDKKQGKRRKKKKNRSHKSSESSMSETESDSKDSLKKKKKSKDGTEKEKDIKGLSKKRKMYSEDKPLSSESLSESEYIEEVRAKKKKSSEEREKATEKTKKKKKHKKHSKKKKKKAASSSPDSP
UniProt O43491, whole entry, looked up: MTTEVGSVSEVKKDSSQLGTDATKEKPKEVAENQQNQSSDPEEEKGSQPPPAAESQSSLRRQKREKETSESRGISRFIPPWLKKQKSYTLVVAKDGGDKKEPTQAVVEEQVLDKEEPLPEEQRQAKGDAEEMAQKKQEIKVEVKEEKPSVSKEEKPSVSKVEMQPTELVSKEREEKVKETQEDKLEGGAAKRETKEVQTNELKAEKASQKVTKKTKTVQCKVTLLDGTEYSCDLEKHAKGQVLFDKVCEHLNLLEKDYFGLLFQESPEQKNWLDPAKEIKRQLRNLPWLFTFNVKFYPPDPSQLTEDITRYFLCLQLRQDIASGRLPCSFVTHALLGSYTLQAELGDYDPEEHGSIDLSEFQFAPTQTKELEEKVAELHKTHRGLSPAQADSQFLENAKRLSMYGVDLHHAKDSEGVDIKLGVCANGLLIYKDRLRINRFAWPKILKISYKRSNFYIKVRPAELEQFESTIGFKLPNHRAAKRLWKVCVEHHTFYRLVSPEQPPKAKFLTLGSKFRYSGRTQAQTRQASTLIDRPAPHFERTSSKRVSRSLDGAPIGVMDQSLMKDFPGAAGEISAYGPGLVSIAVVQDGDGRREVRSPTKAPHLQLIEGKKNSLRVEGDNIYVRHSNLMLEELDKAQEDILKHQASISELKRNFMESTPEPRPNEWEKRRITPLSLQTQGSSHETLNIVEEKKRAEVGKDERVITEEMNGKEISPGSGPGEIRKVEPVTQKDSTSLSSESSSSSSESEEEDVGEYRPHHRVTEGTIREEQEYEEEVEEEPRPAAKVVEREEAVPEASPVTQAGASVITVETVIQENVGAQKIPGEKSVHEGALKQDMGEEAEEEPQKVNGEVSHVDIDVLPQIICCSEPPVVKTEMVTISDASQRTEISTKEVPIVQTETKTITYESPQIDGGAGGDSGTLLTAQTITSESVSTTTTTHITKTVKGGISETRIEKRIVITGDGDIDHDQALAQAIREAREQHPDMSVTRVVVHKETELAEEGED
UniProt P07814: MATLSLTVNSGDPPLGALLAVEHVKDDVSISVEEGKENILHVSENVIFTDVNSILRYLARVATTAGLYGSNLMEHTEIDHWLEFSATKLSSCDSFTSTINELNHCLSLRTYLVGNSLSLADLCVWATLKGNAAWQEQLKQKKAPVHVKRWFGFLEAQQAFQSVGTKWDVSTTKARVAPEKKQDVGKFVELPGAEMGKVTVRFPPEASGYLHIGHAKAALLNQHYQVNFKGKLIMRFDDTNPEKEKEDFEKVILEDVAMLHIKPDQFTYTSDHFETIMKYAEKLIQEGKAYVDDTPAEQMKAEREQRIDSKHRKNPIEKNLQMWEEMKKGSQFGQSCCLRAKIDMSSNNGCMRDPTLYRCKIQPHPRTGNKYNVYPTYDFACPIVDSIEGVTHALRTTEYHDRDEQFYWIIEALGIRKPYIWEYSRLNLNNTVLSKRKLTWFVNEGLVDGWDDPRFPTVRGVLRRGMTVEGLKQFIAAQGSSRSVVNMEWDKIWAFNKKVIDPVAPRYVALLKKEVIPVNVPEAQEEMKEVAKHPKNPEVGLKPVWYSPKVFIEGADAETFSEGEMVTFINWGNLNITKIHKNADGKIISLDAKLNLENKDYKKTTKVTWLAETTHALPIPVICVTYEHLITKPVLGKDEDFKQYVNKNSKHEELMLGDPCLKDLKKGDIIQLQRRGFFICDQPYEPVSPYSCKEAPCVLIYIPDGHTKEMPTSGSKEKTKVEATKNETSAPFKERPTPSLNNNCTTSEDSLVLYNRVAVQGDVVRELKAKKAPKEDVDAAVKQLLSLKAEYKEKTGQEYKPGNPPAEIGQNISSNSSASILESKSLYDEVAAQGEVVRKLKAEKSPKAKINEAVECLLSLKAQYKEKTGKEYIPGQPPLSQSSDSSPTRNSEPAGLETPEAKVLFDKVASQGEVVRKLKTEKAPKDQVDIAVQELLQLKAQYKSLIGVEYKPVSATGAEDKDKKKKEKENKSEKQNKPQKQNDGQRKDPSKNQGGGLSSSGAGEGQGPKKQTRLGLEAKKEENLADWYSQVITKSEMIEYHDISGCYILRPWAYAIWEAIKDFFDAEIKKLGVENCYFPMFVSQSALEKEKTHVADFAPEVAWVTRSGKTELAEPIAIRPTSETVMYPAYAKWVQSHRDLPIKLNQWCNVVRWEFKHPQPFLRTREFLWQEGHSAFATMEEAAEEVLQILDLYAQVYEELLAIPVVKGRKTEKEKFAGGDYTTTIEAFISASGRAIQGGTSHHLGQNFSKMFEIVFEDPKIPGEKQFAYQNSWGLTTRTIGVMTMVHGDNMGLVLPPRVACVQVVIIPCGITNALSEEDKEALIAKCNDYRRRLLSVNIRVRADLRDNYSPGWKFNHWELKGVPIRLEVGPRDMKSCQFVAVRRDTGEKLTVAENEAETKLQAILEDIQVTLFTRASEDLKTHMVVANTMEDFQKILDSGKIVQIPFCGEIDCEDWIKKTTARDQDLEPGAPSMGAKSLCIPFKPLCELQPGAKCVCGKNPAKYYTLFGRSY
UniProt Q6P587: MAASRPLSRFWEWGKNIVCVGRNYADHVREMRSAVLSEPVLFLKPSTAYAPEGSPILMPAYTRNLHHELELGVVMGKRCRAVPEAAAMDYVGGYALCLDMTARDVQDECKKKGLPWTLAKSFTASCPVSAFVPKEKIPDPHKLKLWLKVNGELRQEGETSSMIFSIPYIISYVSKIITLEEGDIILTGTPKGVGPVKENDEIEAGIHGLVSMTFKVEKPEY
UniProt O95864: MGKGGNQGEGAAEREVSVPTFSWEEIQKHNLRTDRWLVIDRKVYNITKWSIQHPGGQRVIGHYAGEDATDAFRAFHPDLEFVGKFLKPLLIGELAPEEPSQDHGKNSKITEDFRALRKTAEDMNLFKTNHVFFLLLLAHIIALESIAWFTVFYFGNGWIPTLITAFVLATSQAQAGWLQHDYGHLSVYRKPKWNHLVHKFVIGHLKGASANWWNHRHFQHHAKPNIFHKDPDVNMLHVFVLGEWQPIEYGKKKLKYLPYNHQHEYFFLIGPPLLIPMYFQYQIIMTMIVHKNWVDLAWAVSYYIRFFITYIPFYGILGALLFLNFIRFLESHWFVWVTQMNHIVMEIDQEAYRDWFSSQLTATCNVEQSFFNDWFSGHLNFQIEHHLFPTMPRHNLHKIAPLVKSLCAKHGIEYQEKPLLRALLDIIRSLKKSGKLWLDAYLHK
UniProt Q9NWS6: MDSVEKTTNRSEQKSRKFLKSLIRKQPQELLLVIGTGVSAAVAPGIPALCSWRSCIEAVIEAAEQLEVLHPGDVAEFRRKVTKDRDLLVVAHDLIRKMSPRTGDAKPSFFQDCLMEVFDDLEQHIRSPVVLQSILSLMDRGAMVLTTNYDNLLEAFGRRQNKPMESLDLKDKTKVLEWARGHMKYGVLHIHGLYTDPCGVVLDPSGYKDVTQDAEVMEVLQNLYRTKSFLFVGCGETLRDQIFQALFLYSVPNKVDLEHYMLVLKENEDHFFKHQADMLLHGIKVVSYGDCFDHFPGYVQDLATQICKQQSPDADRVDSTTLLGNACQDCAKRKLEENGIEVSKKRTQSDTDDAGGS
UniProt Q9H8W3: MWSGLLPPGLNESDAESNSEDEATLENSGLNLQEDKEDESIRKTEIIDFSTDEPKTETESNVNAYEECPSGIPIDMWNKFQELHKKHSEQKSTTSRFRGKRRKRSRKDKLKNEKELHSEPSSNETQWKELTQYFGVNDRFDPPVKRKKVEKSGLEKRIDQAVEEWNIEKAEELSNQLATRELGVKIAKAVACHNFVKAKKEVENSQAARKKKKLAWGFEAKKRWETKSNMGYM
UniProt Q8N128: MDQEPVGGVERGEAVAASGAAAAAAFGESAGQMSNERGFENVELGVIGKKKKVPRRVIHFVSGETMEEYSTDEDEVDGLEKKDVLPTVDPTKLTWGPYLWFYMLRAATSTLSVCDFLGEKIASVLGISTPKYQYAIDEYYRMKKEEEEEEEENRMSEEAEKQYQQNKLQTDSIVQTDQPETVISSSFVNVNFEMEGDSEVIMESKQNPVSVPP
UniProt Q8IWE2: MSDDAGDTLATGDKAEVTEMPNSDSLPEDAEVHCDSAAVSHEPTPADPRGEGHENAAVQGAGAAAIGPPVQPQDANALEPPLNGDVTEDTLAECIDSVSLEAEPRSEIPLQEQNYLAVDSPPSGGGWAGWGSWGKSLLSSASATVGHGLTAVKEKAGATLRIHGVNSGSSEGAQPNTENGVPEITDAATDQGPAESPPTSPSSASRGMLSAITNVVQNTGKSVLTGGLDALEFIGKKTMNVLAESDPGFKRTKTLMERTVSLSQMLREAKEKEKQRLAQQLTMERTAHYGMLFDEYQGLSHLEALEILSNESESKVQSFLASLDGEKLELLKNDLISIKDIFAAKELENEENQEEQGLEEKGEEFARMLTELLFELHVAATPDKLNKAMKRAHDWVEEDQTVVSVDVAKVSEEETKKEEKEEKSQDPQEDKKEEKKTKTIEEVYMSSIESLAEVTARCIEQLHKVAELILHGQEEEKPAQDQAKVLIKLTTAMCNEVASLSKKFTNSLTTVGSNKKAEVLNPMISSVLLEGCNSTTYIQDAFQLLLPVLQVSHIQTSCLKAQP
UniProt Q5VUB5: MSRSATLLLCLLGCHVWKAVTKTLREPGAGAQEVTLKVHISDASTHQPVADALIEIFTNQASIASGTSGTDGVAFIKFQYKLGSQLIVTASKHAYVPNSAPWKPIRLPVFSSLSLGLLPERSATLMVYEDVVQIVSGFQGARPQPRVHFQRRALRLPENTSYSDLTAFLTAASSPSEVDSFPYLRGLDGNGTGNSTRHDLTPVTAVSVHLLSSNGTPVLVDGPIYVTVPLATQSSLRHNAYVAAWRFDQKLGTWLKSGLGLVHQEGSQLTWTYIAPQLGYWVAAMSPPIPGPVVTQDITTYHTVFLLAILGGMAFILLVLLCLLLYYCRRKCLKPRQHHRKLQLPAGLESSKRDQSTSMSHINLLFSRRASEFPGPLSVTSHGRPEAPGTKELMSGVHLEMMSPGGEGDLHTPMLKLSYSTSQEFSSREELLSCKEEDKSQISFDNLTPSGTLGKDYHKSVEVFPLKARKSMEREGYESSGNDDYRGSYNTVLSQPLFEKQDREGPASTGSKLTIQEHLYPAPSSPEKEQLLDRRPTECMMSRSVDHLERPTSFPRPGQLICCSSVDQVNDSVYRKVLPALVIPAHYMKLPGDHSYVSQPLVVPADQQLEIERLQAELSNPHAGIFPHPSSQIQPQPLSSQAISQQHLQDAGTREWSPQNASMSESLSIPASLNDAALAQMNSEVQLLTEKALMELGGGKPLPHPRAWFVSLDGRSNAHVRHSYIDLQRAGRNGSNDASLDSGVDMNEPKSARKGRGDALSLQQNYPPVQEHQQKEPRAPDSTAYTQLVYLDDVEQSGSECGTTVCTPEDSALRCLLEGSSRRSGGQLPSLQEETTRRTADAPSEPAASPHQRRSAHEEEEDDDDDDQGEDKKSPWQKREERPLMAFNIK
UniProt P50548: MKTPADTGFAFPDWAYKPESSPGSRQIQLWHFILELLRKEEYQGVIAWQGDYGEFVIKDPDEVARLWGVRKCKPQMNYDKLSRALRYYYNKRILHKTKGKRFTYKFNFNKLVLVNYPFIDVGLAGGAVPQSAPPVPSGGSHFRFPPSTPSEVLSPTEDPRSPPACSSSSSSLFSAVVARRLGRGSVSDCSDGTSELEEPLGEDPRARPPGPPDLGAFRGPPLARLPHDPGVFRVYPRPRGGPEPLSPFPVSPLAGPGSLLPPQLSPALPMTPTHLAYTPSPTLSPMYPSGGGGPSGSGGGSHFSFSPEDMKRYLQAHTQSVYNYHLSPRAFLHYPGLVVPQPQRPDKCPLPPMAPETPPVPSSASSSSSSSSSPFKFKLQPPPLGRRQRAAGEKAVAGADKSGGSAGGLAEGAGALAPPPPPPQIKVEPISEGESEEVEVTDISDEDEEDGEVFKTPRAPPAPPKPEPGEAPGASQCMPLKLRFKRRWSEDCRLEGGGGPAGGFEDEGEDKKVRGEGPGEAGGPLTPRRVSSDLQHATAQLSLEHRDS

Legend:
Experiment in all cases: log2 fold change, soluble protein after heating vs DMSO (PISA); higher = thermal stabilisation; K562 cells, 10 uM, 30 min; active = over 0.2 and 3.5 SD of the protein, either way, in both replicates (recomputed)
[1] = compound: C#Cc1cccc(Nc2ncnc3cc(OCCOC)c(OCCOC)cc23)c1 [erlotinib]
Procedure, shortened: (§1)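 Soluble protein was defined as the supernatant after 21,000xg for 90 min. It came from K562 cells at 2×10^6 cells/mL given 10 μM compound for 30 min, heated in aliquots for 3 min across 48°C-58°C, pooled, and extracted in PBS with 0.5% NP-40 at 4°C, and was quantified by TMTpro 16plex LC-MS/MS with equalised channel sums. Thermal stability against control samples, from duplicates, is reported as log2 fold change.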

[2] = compound: C/C(=N\NC(=O)C1=CC(=CC=C1)S(=O)(=O)N2CCOCC2)/C3=C(C=CC(=C3)Cl)O
Procedure, shortened: as §1

[3] = compound: C1=CC(=C(C=C1Cl)C2=NC3=NC=CN=C3C(=N2)NC4=CC=NC=C4)F
Procedure, shortened: as §1

[4] = compound: C1=CC(=CC=C1C2=NC3=C(N2)C=C(C=C3)C(=O)N)OC4=CC=C(C=C4)Cl
Procedure, shortened: as §1

[5] = compound: C1=CC2=C(C=CC(=C2)/C=C\3/C(=O)NC(=NCC4=CC=CS4)S3)N=C1
Procedure, shortened: as §1

[6] = compound: C1=CC2=NC=CN=C2C=C1/C=C/3\C(=O)NC(=O)S3
Procedure, shortened: as §1

[7] = compound: C1=CC=C(C=C1)C2=NC(=C(N2)C3=CC=NC=C3)C4=CC(=C(C=C4)Cl)O
Procedure, shortened: as §1

[8] = compound: C1=CC=C2C(=C1)C3=NNC4=CC=CC(=C43)C2=O
Procedure, shortened: as §1

[9] = compound: C1CCN(C1)C(=O)NC2=CC=CC(=C2)NC3=NC=C(C(=N3)NCCC4=CN=CN4)Br
Procedure, shortened: as §1

[10] = compound: C1CN(CCC1(CC2=CC=C(C=C2)Cl)N)C3=NC=NC4=C3C=CN4
Procedure, shortened: as §1

Measured: log2 fold change

FAM118B (UniProt Q9BPY3)
inactive: [1] 0.164 | [2] 0.098 | [3] 0.195 | [4] -0.084 | [5] 0.123 | [6] 0 | [7] 0.044 | [8] -0.021 | [9] -0.045 | [10] -0.023

FAM114A2 (UniProt Q9NRY5)
inactive: [1] -0.001 | [2] 0.051 | [3] 0.055 | [4] -0.002 | [5] 0.008 | [6] 0.067 | [7] -0.018 | [8] -0.04 | [9] -0.002 | [10] -0.021

EPHX1 (UniProt P07099)
inactive: [1] -0.039 | [2] 0.051 | [3] 0.007 | [4] 0.038 | [5] -0.044 | [6] 0.031 | [7] 0.007 | [8] -0.045 | [9] 0.028 | [10] 0.06

ESRRA (UniProt P11474)
inactive: [1] 0.029 | [2] 0.028 | [3] -0.022 | [4] 0.007 | [5] 0.043 | [6] -0.024 | [7] -0.065 | [8] -0.076 | [9] 0.009 | [10] 0.158

FAH (UniProt P16930)
inactive: [1] -0.049 | [2] 0.001 | [3] 0.019 | [4] 0.043 | [5] 0.014 | [6] 0.005 | [7] 0.01 | [8] -0.027 | [9] -0.001 | [10] 0.037

FAM133B (UniProt Q5BKY9)
inactive: [1] -0.009 | [2] -0.004 | [3] 0.005 | [4] 0.051 | [5] -0.062 | [6] -0.013 | [7] -0.036 | [8] 0 | [9] 0.021 | [10] -0.074

EWSR1 isoform 5 (UniProt Q01844)
inactive: [1] -0.026 | [2] -0.113 | [3] -0.056 | [4] 0.028 | [5] -0.059 | [6] 0.006 | [7] -0.032 | [8] -0.013 | [9] -0.017 | [10] 0.031

EPB41L2 (UniProt O43491)
inactive: [1] -0.015 | [2] 0.034 | [3] 0.022 | [4] 0.03 | [5] 0.007 | [6] -0.007 | [7] 0.015 | [8] -0.088 | [9] -0.09 | [10] 0.042

EPS15 (UniProt P42566)
inactive: [1] -0.012 | [2] 0.015 | [3] -0.004 | [4] -0.033 | [5] 0.003 | [6] 0.055 | [7] -0.011 | [8] -0.011 | [9] 0.015 | [10] -0.206

EPRS (UniProt P07814)
inactive: [1] -0.016 | [2] -0.05 | [3] -0.36 | [4] -0.006 | [5] -0.009 | [6] 0.001 | [7] -0.048 | [8] 0 | [9] 0.036 | [10] -0.201

ERMAP (UniProt Q96PL5)
inactive: [1] -0.061 | [2] -0.046 | [3] -0.033 | [4] -0.041 | [5] 0.048 | [6] 0.016 | [7] -0.04 | [8] -0.031 | [9] -0.055 | [10] 0.036

FAHD1 (UniProt Q6P587)
inactive: [1] 0.009 | [2] -0.016 | [3] 0.064 | [4] 0.014 | [5] -0.012 | [6] 0.041 | [7] -0.02 | [8] 0.044 | [9] -0.033 | [10] 0.011

EPM2AIP1 (UniProt Q7L775)
inactive: [1] 0.021 | [2] 0.03 | [3] -0.005 | [4] 0.012 | [5] 0.05 | [6] 0.024 | [7] -0.039 | [8] -0.036 | [9] -0.025 | [10] 0.024

EPB41L5 (UniProt Q9HCM4)
inactive: [1] 0.015 | [3] -0.206 | [4] -0.018

EXTL3 (UniProt O43909)
inactive: [2] -0.034 | [3] -0.301 | [5] 0.009 | [6] -0.104 | [7] 0.016 | [8] 0.016 | [9] -0.048 | [10] 0.049

ESRRB isoform 1 (UniProt O95718)
inactive: [1] -0.133 | [4] -0.037 | [6] -0.046

FAM117B (UniProt Q6P1L5)
inactive: [1] 0.088 | [2] 0.053 | [3] -0.134 | [4] 0.079 | [5] 0.098 | [7] 0.151 | [8] 0.099 | [9] 0.165 | [10] 0.09

Random excerpt: two records from the list
EXTL3 (UniProt O43909)
inactive: [2] -0.034 | [3] -0.301 | [5] 0.009 | [6] -0.104 | [7] 0.016 | [8] 0.016 | [9] -0.048 | [10] 0.049

EPB41L5 (UniProt Q9HCM4)
inactive: [1] 0.015 | [3] -0.206 | [4] -0.018

Continued:

FAM171A2 (UniProt A8MVW0)
inactive: [1] -0.051 | [4] 0.125 | [7] 0.174

FADS2 (UniProt O95864)
inactive: [1] -0.105 | [4] -0.086

EVI5 isoform 2 (UniProt O60447)
inactive: [1] -0.002 | [2] 0.654 | [4] 0.013 | [5] -0.273 | [7] 0.24 | [8] -0.216 | [9] -0.566 | [10] -0.128

FAM118A (UniProt Q9NWS6)
inactive: [2] 0.005 | [3] 0.098 | [5] 0.083 | [6] 0.089 | [7] -0.365 | [8] 0.212 | [9] 0.084 | [10] 0.078

FAM178B (UniProt Q8IXR5)
inactive: [1] -0.15 | [4] 0.157

FAM204A (UniProt Q9H8W3)
inactive: [1] -0.025 | [3] -0.467 | [4] 0.06 | [9] -0.145 | [10] -0.059

FAM177A1 isoform 2 (UniProt Q8N128)
inactive: [1] 0.048 | [2] 0.042 | [3] 0.038 | [4] 0.023 | [5] 0.036 | [6] 0.02 | [7] 0.024 | [8] -0.037 | [9] 0.109 | [10] 0.044

ERAP2 (UniProt Q6P179)
inactive: [1] 0.385 | [3] 0.01 | [4] 0.02

FAM126A (UniProt Q9BYI3)
inactive: [1] 0.185 | [2] 0.006 | [3] -0.019 | [4] 0.133 | [5] 0.151 | [7] -0.008 | [8] 0.15

ERI3 (UniProt H0Y4B0)
inactive: [1] -0.042 | [3] -0.442 | [4] -0.069 | [6] -0.123

FAM185A (UniProt Q8N0U4)
inactive: [1] -0.1 | [2] 0.081 | [4] -0.161 | [5] -0.083 | [6] 0.105 | [7] -0.097 | [8] 0.075 | [9] -0.012 | [10] 0.098

FAM114A1 (UniProt Q8IWE2)
inactive: [1] -0.025 | [3] 0.383 | [4] 0.006 | [7] -0.174 | [9] 0.073 | [10] 0.04

FAM171A1 (UniProt Q5VUB5)
inactive: [1] -0.038 | [2] -0.112 | [3] -0.114 | [4] -0.04 | [5] 0.209 | [8] -0.394

ERF (UniProt P50548)
inactive: [1] -0.448 | [3] 0.127 | [4] -0.036 | [9] 0.058 | [10] 0.13

FAM135A (UniProt Q9P2D6)
inactive: [1] 0.033 | [3] 0.07 | [4] -0.116

EWSR1 (UniProt H7BY36)
inactive: [1] 0.118 | [2] -0.025 | [3] 0.049 | [4] -0.001 | [5] -0.043 | [6] -0.047 | [8] -0.08

EPS8L2 isoform 3 (UniProt Q9H6S3)
inactive: [1] 0.015 | [3] 0.048 | [4] 0.131 | [7] -0.098 | [9] -0.019 | [10] -0.005

F2RL3 (UniProt Q96RI0)
inactive: [1] -0.056 | [2] 0.026 | [4] -0.083 | [5] 0.039 | [7] -0.052 | [8] -0.12 | [9] -0.161 | [10] 0.065
